The supplement of paper PMC10849652
Some of the results follow.

The chains behind the UniProt entries cited, without tags or fusion partners. Where a name states a change or a piece, a line headed by the entry shows the natural chain unless it says otherwise.
UniProt P49368: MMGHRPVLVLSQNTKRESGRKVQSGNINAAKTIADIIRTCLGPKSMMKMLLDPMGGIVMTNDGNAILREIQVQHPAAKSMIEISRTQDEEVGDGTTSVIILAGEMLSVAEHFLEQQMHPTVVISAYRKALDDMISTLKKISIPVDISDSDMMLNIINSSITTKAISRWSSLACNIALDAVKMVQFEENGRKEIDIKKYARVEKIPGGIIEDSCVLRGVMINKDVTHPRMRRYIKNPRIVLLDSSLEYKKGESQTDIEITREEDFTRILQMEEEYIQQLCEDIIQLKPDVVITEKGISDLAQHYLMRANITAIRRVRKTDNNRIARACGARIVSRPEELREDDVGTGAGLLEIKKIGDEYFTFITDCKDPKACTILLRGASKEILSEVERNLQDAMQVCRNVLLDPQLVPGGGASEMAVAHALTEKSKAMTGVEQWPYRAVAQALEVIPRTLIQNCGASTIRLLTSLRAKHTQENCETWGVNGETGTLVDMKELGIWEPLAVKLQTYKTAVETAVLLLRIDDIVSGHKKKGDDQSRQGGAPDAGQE
UniProt Q8WXE0: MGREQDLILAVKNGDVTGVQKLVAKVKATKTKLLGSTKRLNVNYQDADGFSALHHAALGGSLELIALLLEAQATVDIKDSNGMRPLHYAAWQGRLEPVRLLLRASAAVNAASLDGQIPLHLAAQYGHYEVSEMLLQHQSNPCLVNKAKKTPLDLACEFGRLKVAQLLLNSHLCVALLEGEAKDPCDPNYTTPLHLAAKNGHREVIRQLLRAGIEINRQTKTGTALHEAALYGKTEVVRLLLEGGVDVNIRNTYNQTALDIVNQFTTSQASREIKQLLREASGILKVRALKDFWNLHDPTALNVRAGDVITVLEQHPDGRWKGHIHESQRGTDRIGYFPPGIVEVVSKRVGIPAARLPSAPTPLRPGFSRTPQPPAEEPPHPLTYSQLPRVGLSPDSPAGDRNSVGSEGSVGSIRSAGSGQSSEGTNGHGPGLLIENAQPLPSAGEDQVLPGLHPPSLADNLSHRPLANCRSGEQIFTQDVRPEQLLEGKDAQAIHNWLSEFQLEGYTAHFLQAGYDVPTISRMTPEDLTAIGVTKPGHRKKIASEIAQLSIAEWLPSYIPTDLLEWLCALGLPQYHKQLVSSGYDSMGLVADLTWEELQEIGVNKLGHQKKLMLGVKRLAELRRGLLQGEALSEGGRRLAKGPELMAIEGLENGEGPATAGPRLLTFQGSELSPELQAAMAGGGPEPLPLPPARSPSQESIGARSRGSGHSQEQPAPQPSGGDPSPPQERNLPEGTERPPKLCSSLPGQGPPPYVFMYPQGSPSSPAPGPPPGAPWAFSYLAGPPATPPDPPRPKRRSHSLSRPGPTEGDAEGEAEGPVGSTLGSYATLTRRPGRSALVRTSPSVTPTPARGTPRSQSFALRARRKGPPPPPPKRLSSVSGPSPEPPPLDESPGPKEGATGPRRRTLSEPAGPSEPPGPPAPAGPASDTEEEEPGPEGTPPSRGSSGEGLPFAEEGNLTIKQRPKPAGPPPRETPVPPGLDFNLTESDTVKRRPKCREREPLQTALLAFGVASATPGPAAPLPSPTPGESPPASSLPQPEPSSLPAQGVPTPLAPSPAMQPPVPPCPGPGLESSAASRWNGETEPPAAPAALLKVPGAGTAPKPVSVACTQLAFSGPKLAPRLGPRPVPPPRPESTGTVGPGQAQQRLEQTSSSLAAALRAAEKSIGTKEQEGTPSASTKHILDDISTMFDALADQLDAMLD
UniProt Q9GZT6: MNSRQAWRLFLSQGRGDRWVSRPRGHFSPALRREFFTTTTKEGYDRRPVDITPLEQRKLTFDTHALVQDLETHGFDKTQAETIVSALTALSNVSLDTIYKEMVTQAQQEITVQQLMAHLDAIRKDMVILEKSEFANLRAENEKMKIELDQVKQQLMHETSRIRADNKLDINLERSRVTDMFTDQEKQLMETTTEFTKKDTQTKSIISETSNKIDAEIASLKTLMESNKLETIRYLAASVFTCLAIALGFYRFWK
UniProt P45973, whole entry, looked up: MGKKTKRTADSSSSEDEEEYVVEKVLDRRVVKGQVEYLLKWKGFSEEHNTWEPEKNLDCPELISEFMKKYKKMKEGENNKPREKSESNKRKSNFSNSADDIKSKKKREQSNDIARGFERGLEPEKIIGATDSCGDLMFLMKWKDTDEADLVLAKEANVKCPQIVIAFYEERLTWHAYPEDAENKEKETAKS
UniProt Q9ULG6: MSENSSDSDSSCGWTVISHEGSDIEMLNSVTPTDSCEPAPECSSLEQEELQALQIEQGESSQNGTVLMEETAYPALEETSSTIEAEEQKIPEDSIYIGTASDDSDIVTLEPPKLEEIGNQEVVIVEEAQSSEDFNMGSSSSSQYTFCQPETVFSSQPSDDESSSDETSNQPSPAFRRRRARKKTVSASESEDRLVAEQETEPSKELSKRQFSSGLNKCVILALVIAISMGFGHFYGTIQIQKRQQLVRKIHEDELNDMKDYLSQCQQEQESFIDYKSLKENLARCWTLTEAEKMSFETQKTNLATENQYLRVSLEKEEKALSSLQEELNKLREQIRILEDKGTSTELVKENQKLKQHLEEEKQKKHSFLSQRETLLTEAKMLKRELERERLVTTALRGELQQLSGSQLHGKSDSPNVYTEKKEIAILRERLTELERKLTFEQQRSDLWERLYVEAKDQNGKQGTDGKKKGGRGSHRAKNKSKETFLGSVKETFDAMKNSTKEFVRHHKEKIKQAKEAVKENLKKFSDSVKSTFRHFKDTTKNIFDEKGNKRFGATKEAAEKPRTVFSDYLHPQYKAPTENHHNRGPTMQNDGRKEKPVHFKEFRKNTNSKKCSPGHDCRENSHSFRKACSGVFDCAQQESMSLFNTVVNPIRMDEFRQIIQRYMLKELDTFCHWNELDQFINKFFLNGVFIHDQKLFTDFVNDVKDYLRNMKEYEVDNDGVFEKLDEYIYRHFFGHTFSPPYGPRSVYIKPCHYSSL
UniProt Q5RIA9: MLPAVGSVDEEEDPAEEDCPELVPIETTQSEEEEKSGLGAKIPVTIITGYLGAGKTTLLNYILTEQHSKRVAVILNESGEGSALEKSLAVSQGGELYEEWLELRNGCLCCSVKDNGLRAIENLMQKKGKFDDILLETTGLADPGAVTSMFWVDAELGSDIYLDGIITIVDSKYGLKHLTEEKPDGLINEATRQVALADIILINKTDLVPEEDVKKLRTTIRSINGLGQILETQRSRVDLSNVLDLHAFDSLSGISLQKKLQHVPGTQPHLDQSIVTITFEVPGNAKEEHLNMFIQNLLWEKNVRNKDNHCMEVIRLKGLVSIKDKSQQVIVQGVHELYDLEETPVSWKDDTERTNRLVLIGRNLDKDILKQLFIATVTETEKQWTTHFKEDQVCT
UniProt Q13185: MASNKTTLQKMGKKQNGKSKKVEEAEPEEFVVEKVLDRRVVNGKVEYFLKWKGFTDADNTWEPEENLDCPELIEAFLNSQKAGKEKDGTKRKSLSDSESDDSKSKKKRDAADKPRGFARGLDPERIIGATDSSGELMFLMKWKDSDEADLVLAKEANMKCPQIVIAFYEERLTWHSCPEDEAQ
UniProt Q13191, whole entry, looked up: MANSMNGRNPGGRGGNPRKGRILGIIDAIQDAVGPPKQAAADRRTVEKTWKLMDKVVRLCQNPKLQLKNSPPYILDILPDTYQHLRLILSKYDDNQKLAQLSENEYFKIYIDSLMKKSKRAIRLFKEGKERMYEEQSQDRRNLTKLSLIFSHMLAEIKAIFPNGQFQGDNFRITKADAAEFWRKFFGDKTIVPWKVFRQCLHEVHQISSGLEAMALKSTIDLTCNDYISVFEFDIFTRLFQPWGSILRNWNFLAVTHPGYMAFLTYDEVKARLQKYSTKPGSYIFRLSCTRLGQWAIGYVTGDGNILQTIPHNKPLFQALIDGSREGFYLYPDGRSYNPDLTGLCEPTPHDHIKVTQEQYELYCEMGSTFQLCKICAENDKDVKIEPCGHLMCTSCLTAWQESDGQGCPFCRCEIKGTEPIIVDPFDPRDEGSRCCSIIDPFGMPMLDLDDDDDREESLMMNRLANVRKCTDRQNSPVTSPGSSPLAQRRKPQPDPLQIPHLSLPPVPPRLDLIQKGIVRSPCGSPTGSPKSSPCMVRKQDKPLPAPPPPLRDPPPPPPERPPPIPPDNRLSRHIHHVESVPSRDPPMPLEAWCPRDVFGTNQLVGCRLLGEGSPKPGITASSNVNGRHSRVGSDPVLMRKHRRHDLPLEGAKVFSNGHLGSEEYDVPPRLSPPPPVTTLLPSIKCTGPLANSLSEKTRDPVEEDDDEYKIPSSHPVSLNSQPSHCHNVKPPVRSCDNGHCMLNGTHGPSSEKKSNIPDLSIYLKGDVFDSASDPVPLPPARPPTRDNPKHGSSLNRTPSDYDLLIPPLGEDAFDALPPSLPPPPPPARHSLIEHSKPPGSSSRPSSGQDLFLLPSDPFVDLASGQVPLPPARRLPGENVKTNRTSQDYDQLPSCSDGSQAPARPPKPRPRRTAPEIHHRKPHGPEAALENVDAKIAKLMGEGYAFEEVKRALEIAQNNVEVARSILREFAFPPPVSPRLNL

What was measured:
Experiment in all cases: log2 fold change, soluble protein after heating vs DMSO (PISA); higher = thermal stabilisation; K562 lysate, 10 uM; active = over 0.2 and 3.5 SD of the protein, either way, in both replicates (recomputed)
erlotinib = compound: C#Cc1cccc(Nc2ncnc3cc(OCCOC)c(OCCOC)cc23)c1 [erlotinib]
How it was run: (§1)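 Log-two fold change in thermal stability relative to solvent controls is reported from duplicates. For each sample, crude K562 extract from dounce-homogenised pellets in PBS pH 7.4 with 1 mM MgCl2, at 1 mg/mL protein, was treated with 10 μM compound for 30 min. Aliquots heated for 3 min across 48°C-58°C were pooled, brought to 0.5% NP-40 at 4°C and cleared at 21,000xg for 90 min. The supernatant was quantified by TMTpro 16plex LC-MS/MS with channel sums equalised.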

[1] = compound: C/C(=N\NC(=O)C1=CC(=CC=C1)S(=O)(=O)N2CCOCC2)/C3=C(C=CC(=C3)Cl)O
How it was run: as §1

[2] = compound: C1=CC(=CC=C1C2=NC3=C(N2)C=C(C=C3)C(=O)N)OC4=CC=C(C=C4)Cl
How it was run: as §1

[3] = compound: C1=CC2=C(C=CC(=C2)/C=C\3/C(=O)NC(=NCC4=CC=CS4)S3)N=C1
How it was run: as §1

[4] = compound: C1=CC2=NC=CN=C2C=C1/C=C/3\C(=O)NC(=O)S3
How it was run: as §1

[5] = compound: C1=CC=C(C=C1)C2=NC(=C(N2)C3=CC=NC=C3)C4=CC(=C(C=C4)Cl)O
How it was run: as §1

[6] = compound: C1=CC=C2C(=C1)C3=NNC4=CC=CC(=C43)C2=O
How it was run: as §1

[7] = compound: C1CCN(C1)C(=O)NC2=CC=CC(=C2)NC3=NC=C(C(=N3)NCCC4=CN=CN4)Br
How it was run: as §1

[8] = compound: C1CN(CCC1(CC2=CC=C(C=C2)Cl)N)C3=NC=NC4=C3C=CN4
How it was run: as §1

IRAK-1-4 Inhibitor I = compound: C1COCCN1CCN2C3=CC=CC=C3N=C2NC(=O)C4=CC(=CC=C4)[N+](=O)[O-] [IRAK-1-4 Inhibitor I]
How it was run: as §1

ibrutinib = compound: C=CC(=O)N1CCC[C@@H](n2nc(-c3ccc(Oc4ccccc4)cc3)c3c(N)ncnc32)C1 [ibrutinib]
How it was run: as §1

[9] = compound: CC(=O)c1cnc2ccc(-c3cc(Cl)c(O)c(Cl)c3)nc2c1N[C@H]1CC[C@H](CN(C)C)CC1
How it was run: as §1

ralimetinib = compound: CC(C)(C)Cn1c(N)nc2ccc(-c3[nH]c(C(C)(C)C)nc3-c3ccc(F)cc3)nc21 [ralimetinib]
How it was run: as §1

[10] = compound: CC(C)(O)CC(=O)NCCn1ccc2ncnc(Nc3ccc(Oc4cccc(C(F)(F)F)c4)c(Cl)c3)c21
How it was run: as §1

[11] = compound: CC(C)C1=C2N=C(C=C(N2N=C1)NCC3=CC=CC=C3)NCCCCCCN
How it was run: as §1

[12] = compound: CC1=C(C(CC(=O)N1)C2=CC=C(C=C2)C(F)(F)F)C(=O)NC3=C(C=C4C(=C3)C=NN4)F
How it was run: as §1

[13] = compound: CC1=C(C2=C(C=C1)C(=O)C3=CC=CC=C3N2CCCN)C
How it was run: as §1

[14] = compound: CC1=C(C=C(C=C1)NC(=O)C2=CC(=CC=C2)C(C)(C)C#N)NC3=CC4=C(C=C3)N=CN(C4=O)C
How it was run: as §1

[15] = compound: CC1=C(C=C(C=C1)NC(=O)C2=CC(=CC=C2)N(C)C)NC(=O)C3=CC=C(C=C3)O
How it was run: as §1

[16] = compound: CC1=CC=C(C=C1)SC2=C3C=C(SC3=CN=C2)C(=O)N
How it was run: as §1

Measured: log2 fold change

CCT3 (UniProt P49368)
inactive: erlotinib -0.015 | [1] -0.003 | [2] 0.018 | [3] -0.012 | [4] -0.012 | [5] 0.004 | [6] 0.036 | [7] 0.014 | [8] -0.014 | IRAK-1-4 Inhibitor I -0.004 | ibrutinib 0.003 | [9] -0.011 | ralimetinib -0.003 | [10] -0.004 | [11] -0.003 | [12] -0.031 | [13] -0.02 | [14] -0.007 | [15] 0.003 | [16] 0.003

CASKIN2 (UniProt Q8WXE0)
inactive: erlotinib 0.013 | [1] 0.027 | [2] 0.013 | [3] -0.019 | [4] -0.061 | [5] -0.001 | [6] 0.062 | [7] 0.034 | [8] 0.024 | IRAK-1-4 Inhibitor I 0.024 | ibrutinib 0.041 | [9] -0.029 | ralimetinib -0.004 | [10] 0.014 | [11] 0.023 | [12] -0.025 | [13] -0.001 | [14] 0.002 | [15] -0.022 | [16] -0.018

CCDC90B (UniProt Q9GZT6)
inactive: erlotinib -0.026 | [1] 0.012 | [2] 0.05 | [3] 0.039 | [4] -0.064 | [5] -0.008 | [6] -0.075 | [7] 0.047 | [8] 0.099 | IRAK-1-4 Inhibitor I -0.005 | ibrutinib 0.054 | [9] -0.037 | ralimetinib 0.013 | [10] -0.043 | [11] -0.047 | [12] -0.012 | [13] -0.002 | [14] 0.016 | [15] 0.011 | [16] -0.001

CBX5 (UniProt P45973)
inactive: erlotinib -0.012 | [1] 0.009 | [2] 0.013 | [3] -0.001 | [4] 0.011 | [5] 0.011 | [6] 0.026 | [7] -0.007 | [8] 0.02 | IRAK-1-4 Inhibitor I 0.007 | ibrutinib -0.047 | [9] -0.007 | ralimetinib -0.024 | [10] -0.087 | [11] -0.02 | [12] -0.088 | [13] -0.02 | [14] 0.028 | [15] 0.007 | [16] -0.033

CCPG1 isoform 5 (UniProt Q9ULG6)
inactive: erlotinib -0.014 | [1] 0.08 | [2] 0.082 | [3] 0.017 | [4] 0.024 | [5] 0.067 | [6] -0.119 | [7] 0.019 | [8] 0.053 | IRAK-1-4 Inhibitor I -0.03 | ibrutinib 0.021 | [9] -0.014 | ralimetinib 0.08 | [10] 0.013 | [11] 0.014 | [12] -0.004 | [13] -0.058 | [14] -0.026 | [15] -0.029 | [16] -0.102

CBWD5 (UniProt Q5RIA9)
inactive: erlotinib 0.025 | [1] -0.012 | [2] 0 | [3] 0 | [4] 0.09 | [5] -0.006 | [6] -0.027 | [7] 0.022 | [8] -0.005 | IRAK-1-4 Inhibitor I -0.02 | ibrutinib 0.025 | [9] -0.006 | ralimetinib 0.02 | [10] 0.001 | [11] -0.042 | [12] -0.013 | [13] -0.005 | [14] 0.03 | [15] 0.015 | [16] -0.007

CBX3 (UniProt Q13185)
inactive: erlotinib -0.041 | [1] 0.073 | [2] 0.012 | [3] -0.041 | [4] -0.035 | [5] 0.009 | [6] 0.014 | [7] 0.013 | [8] -0.012 | IRAK-1-4 Inhibitor I 0.003 | ibrutinib -0.02 | [9] -0.001 | ralimetinib -0.001 | [10] -0.017 | [11] 0.127 | [12] -0.04 | [13] -0.012 | [14] -0.037 | [15] -0.017 | [16] 0.001

CBLB (UniProt Q13191)
inactive: erlotinib 0.018 | [1] -0.015 | [2] 0.01 | [3] 0.089 | [4] -0.018 | [5] 0.169 | [6] 0 | [7] 0.002 | [8] 0.083 | IRAK-1-4 Inhibitor I -0.072 | ibrutinib 0.003 | [9] 0.005 | ralimetinib -0.008 | [10] -0.026 | [11] -0.015 | [12] 0.079 | [13] -0.052 | [14] 0.075 | [15] 0.159 | [16] -0.014
